PubChem BioAssay AID504808 | Drosophila RNAi Screening Center | 2011

- Test: 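Genes whose loss lifts activity of an E2F-responsive reporter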 (primary screen)
- Cell system: Drosophila S2 cells
- Reagent: long dsRNA against Drosophila genes
- Measured: 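Firefly luciferase driven by E2F sites, normalised to Renilla luciferase on the same minimal promoter, measured by plate reader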
- Direction: E2F firefly: higher = more E2F reporter activity; Renilla normaliser: higher = more normaliser reporter signal
- Rule for the call: 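a knock-down counted as active when the firefly/Renilla E2F signal rose above 50%, a threshold chosen arbitrarily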
The deposit covers about 21,000 reagents; shown is an unselected part of those that have a named target and a result. Over the whole deposit, 18 (0.084%) got an active call. 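Raw counts without plate normalisation, one of two replicates; the ratio scores behind the calls were not deposited.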 A number with no mark means an inactive call. A plus sign joins genes that one reagent is predicted to hit. The record does not give: the amount of reagent, the time to read-out.

target gene | DRSC id | E2F firefly, rep 1 | Renilla normaliser, rep 1
Idh | DRSC10779 | 78223 | 3115
rhea | DRSC11300 | 96367 | 4270
Tina-1 | DRSC04317 | 82288 | 3507
mino | DRSC14132 | 1923 | 836
ZC3H3 | DRSC10696 | 42041 | 3496
CG31464 | DRSC14345 | 1.13e5 | 5920
CG31076 | DRSC16017 | 1.20e5 | 5756
Ugt37A2 | DRSC15861 | 1.30e5 | 5653
CG16904 | DRSC15161 | 76521 | 3521
Est-6 | DRSC11162 | 1.26e5 | 7225
CG13700 | DRSC10049 | 1.61e5 | 8668
Gbeta13F | DRSC20247 | 7740 | 708
CROT | DRSC14518 | 1601 | 856
CROT | DRSC14519 | 1.23e5 | 6587
CG2278 | DRSC18226 | 1.35e5 | 5541
CG11019 (retired record) | DRSC02117 | 1.05e5 | 4218
msps | DRSC17004 | 79802 | 4184
CG10970 | DRSC17772 | 7631 | 736
CG31949 | DRSC00110 | 1.36e5 | 5732
Hsc70-3 | DRSC20253 | 66813 | 5751
CG8401 | DRSC07165 | 66832 | 3871
CG32271 | DRSC08198 | 91349 | 3733
aos | DRSC11323 | 1.74e5 | 8243
RfC4 | DRSC08691 | 65650 | 3463
Nup93-2 | DRSC16221 | 59096 | 3062
CG32388 | DRSC08861 | 1.22e5 | 4348
CG4607 | DRSC18375 | 1.14e5 | 6475
CG7916 | DRSC01901 | 88814 | 3779
Atg2 | DRSC08273 | 77555 | 3572
CG7900 | DRSC16336 | 1.54e5 | 6604
Gtpx | DRSC08221 | 83696 | 3617
slmb | DRSC17056 | 76016 | 4965
AP-1sigma | DRSC15899 | 69102 | 3083
CG17121 | DRSC15176 | 1.07e5 | 6225
mesh | DRSC14472 | 48749 | 3997
mesh | DRSC15098 | 1.14e5 | 6812
mesh | DRSC15099 | 1.14e5 | 6955
mal | DRSC20581 | 1.51e5 | 4903
MRP | DRSC02942 | 73823 | 3498
Ir56b | DRSC06543 | 1.41e5 | 5325
Fbl6 | DRSC06335 | 2805 | 216
CG1924 | DRSC19823 | 1.37e5 | 6482
Sec3 | DRSC10384 | 74135 | 3922
beta4GalNAcTA | DRSC05944 | 44848 | 3345

Continued; the last 4 above are carried over.
target gene | DRSC id | E2F firefly, rep 1 | Renilla normaliser, rep 1
Fbl6 | DRSC06335 | 2805 | 216
CG1924 | DRSC19823 | 1.37e5 | 6482
Sec3 | DRSC10384 | 74135 | 3922
beta4GalNAcTA | DRSC05944 | 44848 | 3345
sha | DRSC06331 | 97047 | 3973
Pcf11 | DRSC05983 | 94 | 28
PlexA | DRSC17220 | 2165 | 980
Pop5 | DRSC10074 | 1.54e5 | 8248
colt | DRSC00808 | 78198 | 3270
Larp4B | DRSC08192 | 81721 | 4068
CG4835 | DRSC10452 | 1.02e5 | 4365
CG31268 | DRSC13203 | 83591 | 2916
CG7231 | DRSC03034 | 1.51e5 | 5206
CG32249 | DRSC08101 | 1.31e5 | 4594
CG32249 | DRSC08177 | 85435 | 3748
CG7518 | DRSC16253 | 66471 | 3263
alrm | DRSC14436 | 1.10e5 | 5563
SoYb | DRSC02901 | 1.57e5 | 4861
CG5808 | DRSC14124 | 65390 | 3478
RpS30 | DRSC15119 | 64914 | 6931
Cyp6a14 (retired record) | DRSC07376 | 1.41e5 | 5224
l(2)k05819 | DRSC00826 | 92148 | 3566
su(r) | DRSC18705 | 7310 | 692
CG14262 | DRSC14757 | 1.19e5 | 5909
Mal-A7 | DRSC06077 | 1.42e5 | 4932
Ccp84Ae | DRSC12590 | 1.30e5 | 5723
CG12640 | DRSC17847 | 1.33e5 | 6126
kappaB-Ras + CG30503 | DRSC06619 | 1.45e5 | 4925
kappaB-Ras + CG30503 | DRSC07636 | 1.43e5 | 4168
Syx6 | DRSC07032 | 2924 | 208
Mlp60A | DRSC04623 | 1.20e5 | 4569
hll | DRSC01944 | 61665 | 3509
ND-ASHI | DRSC18291 | 1.25e5 | 5656
sob | DRSC00838 | 1.46e5 | 5224
CG31100 | DRSC14453 | 1.41e5 | 7092
CG31100 | DRSC14455 | 1.27e5 | 6412
Hmgcr | DRSC16704 | 86244 | 5804
Cwc25 | DRSC00545 | 1.37e5 | 6065
VAChT + ChAT | DRSC13312 | 80604 | 2472
CG4983 | DRSC02799 | 74579 | 3293
Ank2 | DRSC08894 | 1.41e5 | 4643
Ank2 | DRSC09666 | 1.00e5 | 3883
Ank2 | DRSC10338 | 97303 | 4125
Ank2 | DRSC11278 | 1.16e5 | 4252
ProtA | DRSC03372 | 1.12e5 | 4936
CG17440 | DRSC18126 | 1.18e5 | 4728
Bx | DRSC19350 | 91834 | 4291
CG43316 | DRSC06296 | 99651 | 4120
CG43316 | DRSC06297 | 1.07e5 | 4115
CG10063 | DRSC09688 | 87577 | 3451
CG9663 | DRSC00724 | 91611 | 3614
CG34393 | DRSC00419 | 1.56e5 | 5313
CG34393 | DRSC00710 | 1.58e5 | 5259
eIF1A | DRSC16937 | 64553 | 5101
fj | DRSC07619 | 1.62e5 | 5649
rst | DRSC17243 | 77151 | 3435
rst | DRSC18828 | 1.26e5 | 6542
CG34214 | DRSC04490 | 85957 | 3539
CG5466 | DRSC15808 | 48904 | 3903
Jon65Ai | DRSC09731 | 94362 | 3577
az2 | DRSC07580 | 80627 | 3898
Rtf1 | DRSC04085 | 93438 | 4096
CR31292 | DRSC13120 | 84255 | 2939
CR18275 + CG13373 | DRSC17900 | 42759 | 4219
CG42493 | DRSC05309 | 95384 | 3702
CG7131 | DRSC16203 | 61163 | 2636
Or65a | DRSC08808 | 1.33e5 | 4968
